Test results as given in publication PMC5733026.
These are yes or no findings as the source states them, for the method shown. Binding seen in cells or lysates may run through a third protein. Some results given as binding are weak or reduced against the parent protein; the word gives no strength. Each block holds one substance with its values, some of them ahead of it.

Protein sequences, listed by entry. Tags and fused reporters are not part of them. Lines headed by an entry give the natural chain unless they say otherwise; changes in a name come on top. Chains listed by the source or under a name are the forms on record and can include a tag or linker. Residues count along the entry.
wild-type human 69-kDa choline acetyltransferase (ChAT) (P28329, residues 119-748): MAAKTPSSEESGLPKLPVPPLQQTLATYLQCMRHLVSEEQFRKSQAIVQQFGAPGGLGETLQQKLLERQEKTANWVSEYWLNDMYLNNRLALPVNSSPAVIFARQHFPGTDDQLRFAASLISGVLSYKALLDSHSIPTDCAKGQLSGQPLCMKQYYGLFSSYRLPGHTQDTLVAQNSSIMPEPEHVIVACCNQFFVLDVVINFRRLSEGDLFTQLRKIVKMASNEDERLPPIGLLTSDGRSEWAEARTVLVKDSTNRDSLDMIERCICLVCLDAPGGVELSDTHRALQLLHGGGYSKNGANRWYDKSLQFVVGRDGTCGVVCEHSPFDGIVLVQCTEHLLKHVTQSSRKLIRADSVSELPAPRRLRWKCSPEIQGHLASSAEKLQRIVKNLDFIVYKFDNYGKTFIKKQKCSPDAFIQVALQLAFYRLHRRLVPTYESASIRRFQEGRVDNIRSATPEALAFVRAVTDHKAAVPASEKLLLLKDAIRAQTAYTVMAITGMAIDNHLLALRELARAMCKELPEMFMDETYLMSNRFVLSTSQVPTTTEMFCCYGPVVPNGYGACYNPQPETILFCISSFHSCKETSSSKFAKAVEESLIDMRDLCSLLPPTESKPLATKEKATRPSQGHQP
A513T-ChAT (human 69-kDa choline acetyltransferase, CMS-related mutant) (P28329, form named): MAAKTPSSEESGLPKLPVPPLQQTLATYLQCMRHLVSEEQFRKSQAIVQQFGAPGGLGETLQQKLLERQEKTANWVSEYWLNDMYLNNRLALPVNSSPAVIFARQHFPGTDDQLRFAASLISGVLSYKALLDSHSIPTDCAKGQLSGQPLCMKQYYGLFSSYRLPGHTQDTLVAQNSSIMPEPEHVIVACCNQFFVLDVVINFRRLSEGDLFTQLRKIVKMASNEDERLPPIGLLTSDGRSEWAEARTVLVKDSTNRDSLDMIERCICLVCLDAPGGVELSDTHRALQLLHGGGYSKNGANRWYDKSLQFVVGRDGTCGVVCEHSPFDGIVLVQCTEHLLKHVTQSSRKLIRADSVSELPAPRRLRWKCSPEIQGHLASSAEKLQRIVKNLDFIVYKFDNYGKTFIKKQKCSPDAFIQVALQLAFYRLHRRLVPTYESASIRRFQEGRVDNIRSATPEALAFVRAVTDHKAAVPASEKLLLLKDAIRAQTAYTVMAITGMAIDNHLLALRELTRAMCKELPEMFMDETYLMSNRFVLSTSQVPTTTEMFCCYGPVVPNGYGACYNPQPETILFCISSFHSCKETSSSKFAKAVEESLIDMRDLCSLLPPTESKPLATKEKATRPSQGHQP
P17A/P19A-ChAT (human 69-kDa choline acetyltransferase, proline-rich motif mutant) (P28329, form named): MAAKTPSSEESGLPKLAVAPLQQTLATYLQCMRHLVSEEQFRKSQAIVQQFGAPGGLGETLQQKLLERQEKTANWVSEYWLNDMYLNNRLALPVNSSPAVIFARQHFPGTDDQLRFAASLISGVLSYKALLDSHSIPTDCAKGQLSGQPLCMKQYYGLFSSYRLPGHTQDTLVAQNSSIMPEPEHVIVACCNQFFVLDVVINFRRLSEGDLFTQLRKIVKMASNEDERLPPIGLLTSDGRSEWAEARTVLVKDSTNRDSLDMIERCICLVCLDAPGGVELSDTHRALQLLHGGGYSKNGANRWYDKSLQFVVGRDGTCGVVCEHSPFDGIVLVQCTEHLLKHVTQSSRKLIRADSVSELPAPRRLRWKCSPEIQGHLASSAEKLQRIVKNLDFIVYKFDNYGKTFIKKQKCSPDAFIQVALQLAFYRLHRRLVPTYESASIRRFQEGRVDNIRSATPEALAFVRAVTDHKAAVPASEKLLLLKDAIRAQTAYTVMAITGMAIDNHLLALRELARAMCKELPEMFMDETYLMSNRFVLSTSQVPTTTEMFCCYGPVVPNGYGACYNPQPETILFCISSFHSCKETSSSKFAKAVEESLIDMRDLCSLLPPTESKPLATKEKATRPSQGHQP
V18M-ChAT (human 69-kDa choline acetyltransferase, CMS-related mutant) (P28329, form named): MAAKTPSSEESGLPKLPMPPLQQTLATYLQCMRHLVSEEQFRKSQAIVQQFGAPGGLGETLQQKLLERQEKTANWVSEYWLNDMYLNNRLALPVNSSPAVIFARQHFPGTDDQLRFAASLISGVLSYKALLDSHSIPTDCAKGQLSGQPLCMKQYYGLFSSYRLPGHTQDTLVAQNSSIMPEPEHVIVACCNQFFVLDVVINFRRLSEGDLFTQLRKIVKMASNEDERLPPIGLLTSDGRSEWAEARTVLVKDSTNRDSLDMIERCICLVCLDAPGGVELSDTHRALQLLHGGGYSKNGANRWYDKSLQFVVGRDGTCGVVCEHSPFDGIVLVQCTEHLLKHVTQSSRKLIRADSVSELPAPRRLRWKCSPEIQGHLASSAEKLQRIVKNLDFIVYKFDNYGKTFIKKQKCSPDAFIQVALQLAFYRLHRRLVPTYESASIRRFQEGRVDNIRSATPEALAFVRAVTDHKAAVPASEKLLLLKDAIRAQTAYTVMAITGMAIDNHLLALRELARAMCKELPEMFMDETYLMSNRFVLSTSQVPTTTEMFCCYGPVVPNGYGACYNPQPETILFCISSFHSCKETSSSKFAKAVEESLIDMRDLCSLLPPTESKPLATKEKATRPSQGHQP
UniProt Q9WUD1: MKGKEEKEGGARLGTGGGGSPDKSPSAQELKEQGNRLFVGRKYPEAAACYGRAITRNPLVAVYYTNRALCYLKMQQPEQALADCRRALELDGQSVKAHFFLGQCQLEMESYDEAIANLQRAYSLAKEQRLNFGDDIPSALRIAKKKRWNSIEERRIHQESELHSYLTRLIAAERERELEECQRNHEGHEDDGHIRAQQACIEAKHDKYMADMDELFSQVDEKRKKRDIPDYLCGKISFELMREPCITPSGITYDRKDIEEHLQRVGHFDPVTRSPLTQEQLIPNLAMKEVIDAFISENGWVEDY
UniProt Q9UNE7: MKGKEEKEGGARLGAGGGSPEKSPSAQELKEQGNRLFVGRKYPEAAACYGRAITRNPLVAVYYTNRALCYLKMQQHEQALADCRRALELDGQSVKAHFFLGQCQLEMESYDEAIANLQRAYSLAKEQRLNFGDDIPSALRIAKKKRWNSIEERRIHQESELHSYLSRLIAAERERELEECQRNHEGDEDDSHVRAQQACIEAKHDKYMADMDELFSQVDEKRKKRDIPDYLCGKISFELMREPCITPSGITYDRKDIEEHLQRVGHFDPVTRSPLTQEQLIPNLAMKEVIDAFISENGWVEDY
UniProt P11142: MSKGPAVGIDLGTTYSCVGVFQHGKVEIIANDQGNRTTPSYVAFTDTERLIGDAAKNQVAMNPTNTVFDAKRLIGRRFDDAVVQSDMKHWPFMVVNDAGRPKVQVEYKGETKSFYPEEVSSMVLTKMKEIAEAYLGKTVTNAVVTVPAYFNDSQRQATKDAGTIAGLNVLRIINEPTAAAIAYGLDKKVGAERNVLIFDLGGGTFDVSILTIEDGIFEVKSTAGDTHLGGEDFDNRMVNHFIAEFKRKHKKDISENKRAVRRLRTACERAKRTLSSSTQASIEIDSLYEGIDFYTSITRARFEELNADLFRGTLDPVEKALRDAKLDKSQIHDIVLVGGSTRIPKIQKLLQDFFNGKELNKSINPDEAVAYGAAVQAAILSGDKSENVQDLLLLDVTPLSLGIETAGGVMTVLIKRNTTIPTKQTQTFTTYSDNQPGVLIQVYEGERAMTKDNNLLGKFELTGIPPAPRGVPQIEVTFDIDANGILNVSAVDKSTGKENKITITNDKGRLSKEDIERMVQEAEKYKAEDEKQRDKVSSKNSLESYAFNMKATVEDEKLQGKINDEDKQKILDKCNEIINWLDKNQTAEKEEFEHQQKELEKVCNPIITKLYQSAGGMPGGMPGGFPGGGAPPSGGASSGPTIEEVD

Experiments:
[1] = target: wild-type human 69-kDa choline acetyltransferase (ChAT) (human) (UniProt P28329); experiment: proximity ligation; Duolink in situ PLA in formalin-fixed, permeabilised SN56 cells expressing wild-type ChAT; goat anti-ChAT with mouse anti-HSC70, mouse anti-HSP90 or rabbit anti-CHIP; confocal microscopy
[2] = target: A513T-ChAT (human 69-kDa choline acetyltransferase, CMS-related mutant) (human) (UniProt P28329); experiment: co-IP; SN56 cells expressing untagged ChAT; lysate (4 mg protein; 10 mM HEPES pH 7.4, 5 mM MgCl2, 1 mM EGTA, 50 mM NaCl, 5% glycerol, 0.5% Triton X-100) with anti-ChAT antibody CTab 18 h at 4°C, protein-G Dynabeads; blots for endogenous HSC70, HSP90, CHIP
[3] = target: P17A/P19A-ChAT (human 69-kDa choline acetyltransferase, proline-rich motif mutant) (human) (UniProt P28329); experiment: as above
[4] = target: V18M-ChAT (human 69-kDa choline acetyltransferase, CMS-related mutant) (human) (UniProt P28329); experiment: as above
[5] = target: wild-type human 69-kDa choline acetyltransferase (ChAT) (human) (UniProt P28329); experiment: as above
[6] = target: A513T-ChAT (human 69-kDa choline acetyltransferase, CMS-related mutant) (human) (UniProt P28329); experiment: co-IP; SN56 cells co-expressing untagged ChAT and FLAG-CHIP; lysate (2 mg protein; 10 mM HEPES pH 7.4, 5 mM MgCl2, 1 mM EGTA, 50 mM NaCl, 5% glycerol, 0.5% Triton X-100) with anti-ChAT antibody CTab 18 h at 4°C, protein-G Dynabeads; anti-FLAG blot
[7] = target: P17A/P19A-ChAT (human 69-kDa choline acetyltransferase, proline-rich motif mutant) (human) (UniProt P28329); experiment: as above
[8] = target: V18M-ChAT (human 69-kDa choline acetyltransferase, CMS-related mutant) (human) (UniProt P28329); experiment: as above
[9] = target: wild-type human 69-kDa choline acetyltransferase (ChAT) (human) (UniProt P28329); experiment: as above
[10] = target: P17A/P19A-ChAT (human 69-kDa choline acetyltransferase, proline-rich motif mutant) (human) (UniProt P28329); experiment: co-IP; HEK293 cells expressing untagged ChAT; lysate (4 mg protein; 10 mM HEPES pH 7.4, 5 mM MgCl2, 1 mM EGTA, 50 mM NaCl, 5% glycerol, 0.5% Triton X-100) with anti-ChAT antibody CTab 18 h at 4°C, protein-G Dynabeads; blots for endogenous HSC70, HSP70, HSP90
[11] = target: wild-type human 69-kDa choline acetyltransferase (ChAT) (human) (UniProt P28329); experiment: as above

- binding [1]: binds
- binding [2]: binds
- binding [3]: binds
- binding [4]: binds
- binding [5]: binds
Substance: C-terminus of HSC70-interacting protein (CHIP) (endogenous, SN56) (from UniProt Q9WUD1 1-304) (enzyme)

- binding [6]: binds
- binding [7]: binds
- binding [8]: binds
- binding [9]: binds
Substance: FLAG-tagged C-terminus of HSC70-interacting protein (FLAG-CHIP) (from UniProt Q9UNE7 1-303) (enzyme)

- binding [10]: binds
- binding [11]: binds
Substance: heat shock cognate 71 kDa protein (HSC70) (endogenous, HEK293) (from UniProt P11142 1-646)
